The values that follow come from article PMC9519289.

No constants are given. Whether binding was seen depends on the method and setting. Binding seen in cells or lysates may run through a third protein. Some binding calls cover weakened binding; strength is not graded here.

The target in the test is T1, Regulated in development and DNA damage response 1 (REDD1) (human (endogenous in HK-2)) (UniProt Q9NX09).
T1 sequence: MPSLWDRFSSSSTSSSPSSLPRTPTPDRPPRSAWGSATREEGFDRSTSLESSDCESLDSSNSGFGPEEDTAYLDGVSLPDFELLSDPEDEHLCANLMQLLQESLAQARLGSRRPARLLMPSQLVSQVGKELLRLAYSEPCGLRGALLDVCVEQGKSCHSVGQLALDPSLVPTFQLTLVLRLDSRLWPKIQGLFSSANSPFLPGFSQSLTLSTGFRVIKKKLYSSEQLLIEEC
Put plainly: co-IP; endogenous proteins; lysate supernatant with primary antibody at 4°C overnight, protein A/G sepharose 3 h, three washes, western blot; cells under normal glucose (5.6 mM) or high glucose (30 mM). On the technique in general: In western blotting, separated proteins are transferred to a membrane and probed.

B1: thioredoxin-interacting protein (TXNIP) (protein, UniProt Q9H3M7 1-391)
chain: MVMFKKIKSFEVVFNDPEKVYGSGEKVAGRVIVEVCEVTRVKAVRILACGVAKVLWMQGSQQCKQTSEYLRYEDTLLLEDQPTGENEMVIMRPGNKYEYKFGFELPQGPLGTSFKGKYGCVDYWVKAFLDRPSQPTQETKKNFEVVDLVDVNTPDLMAPVSAKKEKKVSCMFIPDGRVSVSARIDRKGFCEGDEISIHADFENTCSRIVVPKAAIVARHTYLANGQTKVLTQKLSSVRGNHIISGTCASWRGKSLRVQKIRPSILGCNILRVEYSLLIYVSVPGSKKVILDLPLVIGSRSGLSSRTSSMASRTSSEMSWVDLNIPDTPEAPPCYMDVIPEDHRLESPTTPLLDDMDGSQDSPIFMYAPEFKFMPPPTYTEVDPCILNNNVQ
Turning to B1, the binding entry is listed as “binds”.
